Results published in patent US20090312249A1.
No constants are given. Whether binding was seen depends on the method and setting. In cells and extracts the contact can be indirect. Some binding calls cover weakened binding; strength is not graded here. Where a sequence is shown, tags or fusion partners need not be part of it.

Protein sequences, listed by entry. Tags and fused reporters are not part of them. Residues count along the entry.
UniProt O00206, residues 24-631: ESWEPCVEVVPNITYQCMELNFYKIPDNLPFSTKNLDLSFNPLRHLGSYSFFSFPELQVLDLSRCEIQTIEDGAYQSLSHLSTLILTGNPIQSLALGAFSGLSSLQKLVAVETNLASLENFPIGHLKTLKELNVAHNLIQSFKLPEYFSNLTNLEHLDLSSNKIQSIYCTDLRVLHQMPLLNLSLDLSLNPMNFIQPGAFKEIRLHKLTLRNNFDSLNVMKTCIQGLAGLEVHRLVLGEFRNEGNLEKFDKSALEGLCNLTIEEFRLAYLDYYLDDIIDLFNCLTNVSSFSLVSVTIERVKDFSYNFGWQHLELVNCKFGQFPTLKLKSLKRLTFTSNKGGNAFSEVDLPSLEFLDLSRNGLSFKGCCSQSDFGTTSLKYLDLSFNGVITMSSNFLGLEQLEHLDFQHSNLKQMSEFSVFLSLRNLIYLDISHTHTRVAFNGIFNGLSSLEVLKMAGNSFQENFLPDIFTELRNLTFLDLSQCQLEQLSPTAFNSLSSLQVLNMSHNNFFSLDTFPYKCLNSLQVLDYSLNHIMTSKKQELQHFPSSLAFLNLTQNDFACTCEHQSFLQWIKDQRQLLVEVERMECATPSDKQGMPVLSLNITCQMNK

What was measured:
Protein A-tagged MD-2 [1] = biological target: T1, Protein A-tagged MD-2 (UniProt Q9Y6Y9); experiment: co-expression in insect cells, IgG Sepharose affinity co-purification, SDS-PAGE
T1 sequence (looked up): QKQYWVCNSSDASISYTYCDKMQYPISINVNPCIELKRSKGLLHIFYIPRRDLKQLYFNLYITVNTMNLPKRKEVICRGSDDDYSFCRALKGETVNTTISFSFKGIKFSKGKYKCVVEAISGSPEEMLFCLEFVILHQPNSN

Protein A-tagged MD-2 [2] = biological target: T1, Protein A-tagged MD-2; experiment: co-expression in insect cells, IgG Sepharose affinity co-purification, SDS-PAGE (legend of FIG. 4A)

hTLR4 ectodomain (from UniProt O00206 24-631) (receptor)
binding (Protein A-tagged MD-2 [1]): binds | binding (Protein A-tagged MD-2 [2]): binds
